In the assay the test system is P388 leukemia ip, CD2F1 mice, survival T/C. Kind of assay: NCI In Vivo Anticancer Drug Screen. Data for tumor model P388 Leukemia (intraperitoneal) in CD2F1 (CDF1) mice. As to conditions: T/C endpoint: median survival time, higher T/C = longer survival.
[1] abbreviates: dose: 25.0 mg/kg/injection, schedule: Q04DX002 (ip), vehicle: saline with Tween-80.
Setting [2] is: dose: 100.0 mg/kg/injection, schedule: Q04DX002 (ip), vehicle: saline with Tween-80.
Setting [3] is: dose: 100.0 mg/kg/injection, schedule: Q01DX009 (ip), vehicle: saline with Tween-80.
Setting [4] is: dose: 200.0 mg/kg/injection, schedule: Q01DX009 (ip), vehicle: saline with Tween-80.
Where [5] appears, read: dose: 200.0 mg/kg/injection, schedule: Q01DX009 (ip), vehicle: saline.
Setting [6] is: dose: 240.0 mg/kg/injection, schedule: Q01DX005 (ip), vehicle: saline with Tween-80.
The mark [7] stands for this setting: dose: 400.0 mg/kg/injection, schedule: Q01DX001 (ip), vehicle: saline with Tween-80.
Where [8] appears, read: dose: 200.0 mg/kg/injection, schedule: Q01DX005 (ip), vehicle: saline with Tween-80.
Where [9] appears, read: dose: 100.0 mg/kg/injection, schedule: Q01DX005 (ip), vehicle: saline.
Where [10] appears, read: dose: 200.0 mg/kg/injection, schedule: Q01DX005 (ip), vehicle: saline.

The list shows only some results of the screen, not a fair sample: it gathers tests that were run many times, whatever their T/C, doses with no T/C, and many T/C values between a quarter and a half above the control. Other doses and runs of a compound stand elsewhere. T/C is the treated group as % of the vehicle group. Some doses have a count of surviving animals in place of a T/C: the source holds a T/C of zero for them, seemingly a mark for toxic or unscored doses. Some survivor counts are full or nearly so, which does not show that the dose was tolerated: survival well below the control is almost never listed, so the zero probably covers shortened survival too. Survivors were counted at the toxicity check, usually on the fifth day, unless a day is given; later deaths do not show. Schedule codes are those of the source, read here as Q, the interval in days (D) or hours (H), X, the number of doses. Some entries hold several experiments; the values are given in rising order. For survival time, this PubChem deposit counts one and a half times the control or more as active, and values a quarter to a half above the control carry no call in these data; other NCI protocols may use other cut-offs. Some T/C values are followed by the survivors on the day toxicity was checked, most often the fifth; without a count, all were alive then.

For the compound `CN=C(N)N/N=C(\C)c1ccc2c(ccc3ccccc32)c1`, the T/C was 125 and 138 % of control under setting [1]; 125 and 134 % of control (dose: 50.0 mg/kg/injection, schedule: Q04DX002 (ip), vehicle: saline with Tween-80); 134 % of control under setting [2]. Also, under “dose: 200.0 mg/kg/injection, schedule: Q04DX002 (ip), vehicle: saline with Tween-80”, the survivor count is 4 of 6.

Consider `[NH-]C(CO)C(=O)O.[NH-]C(CO)C(=O)O.[Pd+2]` (configuration not stated), for which the T/C (dose: 100.0 mg/kg/injection, schedule: Q01DX009 (ip), vehicle: water) was 126 % of control [5 of 6 alive]. The survivor count (dose: 200.0 mg/kg/injection, schedule: Q04DX003 (ip), vehicle: water) is listed as 1 of 6.

As to `Cc1ccc(S(=O)(=O)N2CCCN(S(=O)(=O)c3ccc(C)cc3)CCSCCCSCC2)cc1`, the survivor count under setting [3] was 6 of 6 and the survivor count under setting [4] is 6 of 6.

As for `CS1(=O)=NC(=N)c2ccccc21` (configuration not stated), the survivor count under setting [5] was 3 of 6.

On to `O=C1C(Cl)=C(Sc2nc3ccccc3s2)C(=O)c2ccccc21`, for which the survivor count (dose: 50.0 mg/kg/injection, schedule: Q01DX005 (ip), vehicle: saline with Tween-80) was 3 of 5.

Consider `CC1=CC(=NC(=O)CBr)C=C/C1=N\S(=O)(=O)c1ccccc1`, for which the survivor count runs as follows: (dose: 50.0 mg/kg/injection, schedule: Q01DX009 (ip), vehicle: saline with Tween-80) 3 of 6; under setting [3], 0 of 6; under setting [4], 0 of 6.

For the compound `Nc1cc2nnc(-c3ccccc3)c(-c3ccccc3)n2n1`, under setting [2], the survivor count was 6 of 6.

On to `O=C1C2=C(Nc3cc([N+](=O)[O-])ccc3N2)OC1c1c[nH]c2ccc(COc3ccccc3)cc12` (configuration not stated), for which the survivor count under setting [6] is given as 6 of 6.

For `Clc1ccc(C(c2ccc(Cl)cc2)C(Cl)(Cl)Cl)cc1`, the survivor count runs as follows: under setting [3], 6 of 6; under setting [4], 6 of 6.

For the compound `O=C1NC(=O)C2(CCCC2)c2ccncc21`, under setting [1], the survivor count was 2 of 6.

`O=C(O)Cc1c[nH]c2c(Cl)ccc(Cl)c12`: the survivor count under setting [7] is reported as 0 of 6.

On to `CC(=O)c1c(-c2ccc(Cl)cc2)c(-c2ccc(Cl)cc2)nn(CCN)c1=O`, for which the survivor count runs as follows: (dose: 100.0 mg/kg/injection, schedule: Q01DX005 (ip), vehicle: saline with Tween-80) 1 of 6; under setting [8], 0 of 6.

With `COc1cc(C=Nc2cc(Cl)ccc2-n2ccnc2C)ccc1N(CCCl)CCCl`, under “dose: 100.0 mg/kg/injection, schedule: Q04DX003 (ip), vehicle: saline with Tween-80”, the T/C was 146 % of control. The survivor count (dose: 400.0 mg/kg/injection, schedule: Q04DX003 (ip), vehicle: saline with Tween-80) is listed as 6 of 6.

As for `[O-]c1n[n+](-c2ccccc2)ns1`, the survivor count is 1 of 6 and 4 of 6 (dose: 50.0 mg/kg/injection, schedule: Q01DX009 (ip), vehicle: distilled water + Tween-80); 1 of 6 (dose: 100.0 mg/kg/injection, schedule: Q01DX009 (ip), vehicle: distilled water + Tween-80); 0 of 6 (dose: 200.0 mg/kg/injection, schedule: Q01DX009 (ip), vehicle: distilled water + Tween-80).

Consider `CSc1nc(=O)c(=O)nc(Nc2ccccc2)n1-c1ccccc1`, for which, under setting [3], the survivor count is listed as 6 of 6.

For `Cc1cc[n+](CCc2c[nH]c3ccccc23)cc1C`, the survivor count is on record as 0 of 5 under setting [9] and 0 of 5 under setting [10].

As to `O=S(=O)(Nc1ccccn1)c1ccc(N=Cc2c3ccccc3nc3cc(Cl)ccc23)cc1`, under setting [8], the survivor count is reported as 6 of 6.

With `CCN(C=Nc1ccc(Cl)cc1C)CC`, under “dose: 200.0 mg/kg/injection, schedule: Q01DX009 (ip), vehicle: Klucel (hydroxypropylcellulose) (HPC)”, the survivor count is reported as 6 of 6.

As for `Cc1ccc(S(=O)(=O)NN=c2cccccc2)cc1`, the survivor count (dose: 400.0 mg/kg/injection, schedule: Q01DX001 (ip), vehicle: DMSO) is on record as 0 of 6.

As to `CCN(CC)CCSCCCNc1cc(OC)cc2cccnc12`, the survivor count runs as follows: under setting [9], 2 of 5; under setting [10], 0 of 5.

Take `C=CCn1c(SC)nc2c(c1=O)CCCC2`: under setting [6], the survivor count was 2 of 6.

On to `COC(=O)C1=C(C(=O)OC)[C]([Hg][CH3])(C(C)=O)N=N1` (configuration not stated), for which the survivor count is reported as 0 of 6 (dose: 25.0 mg/kg/injection, schedule: Q01DX009 (ip), vehicle: saline); 0 of 6 (dose: 50.0 mg/kg/injection, schedule: Q01DX009 (ip), vehicle: saline); 0 of 6 (dose: 100.0 mg/kg/injection, schedule: Q01DX009 (ip), vehicle: saline); 0 of 6 under setting [5].

`N#CC#Cc1cccc(C#CC#N)c1`: the survivor count runs as follows: (dose: 25.0 mg/kg/injection, schedule: Q01DX001 (ip), vehicle: saline with Tween-80) 1 of 6 and 2 of 6; (dose: 50.0 mg/kg/injection, schedule: Q01DX001 (ip), vehicle: saline with Tween-80) 0 of 6; (dose: 100.0 mg/kg/injection, schedule: Q01DX001 (ip), vehicle: saline with Tween-80) 0 of 6; (dose: 200.0 mg/kg/injection, schedule: Q01DX001 (ip), vehicle: saline with Tween-80) 0 of 6; under setting [7], 0 of 6.

As to `C[N+](C)(C)NC1OC(C(O)S(=O)(=O)O)C(OCc2ccccc2)C(OCc2ccccc2)C1O` (configuration not stated), the survivor count under setting [5] was 1 of 6.

On to `COc1ccc(C=C2C(=O)N(C)C(=O)N(C)C2=O)cc1`, for which, under setting [4], the T/C was 126 % of control. Besides, the survivor count (dose: 400.0 mg/kg/injection, schedule: Q01DX009 (ip), vehicle: saline with Tween-80) is listed as 5 of 6.

The values above are taken from PubChem BioAssay AID330 (DTP/NCI, 2004).
